Taken from: PubChem BioAssay AID652272 (Drosophila RNAi Screening Center, 2013)
The deposit covers about 21,000 reagents; this is a random part of those with a known target gene and a result. Over the whole deposit, 503 (2.4%) were called active. 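Raw plate light values, not normalised; calls rest on replicate z-scores that were not deposited; hits include reporter decreases as well as increases.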 The record does not give: the amount of reagent, the time to read-out.

Assay: 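Genome-wide knock-down search for components of Hedgehog signalling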 (primary screen)
Cells: Drosophila clone 8 (Cl8) cells
Knock-down reagent: long dsRNA against Drosophila genes
Detection: 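Plate reader light from a firefly reporter under a ptc promoter fragment that responds to Hedgehog, with Renilla light as transfection reference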
Direction: firefly Hh reporter signal: higher = more ptc reporter light; Renilla reference signal: higher = more Renilla control light
Active means: 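Called a hit if the two-replicate mean z-score lies below -2 or above +3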
Calls: active = hit: reporter lowered or raised; inactive = not a hit

brwl [DRSC01080]: firefly Hh reporter signal, replicate 1 = 3.50e5; firefly Hh reporter signal, replicate 2 = 54642; Renilla reference signal, replicate 1 = 16928; Renilla reference signal, replicate 2 = 2484; Call = inactive
brwl [DRSC02729]: firefly Hh reporter signal, replicate 1 = 82583; firefly Hh reporter signal, replicate 2 = 57479; Renilla reference signal, replicate 1 = 3677; Renilla reference signal, replicate 2 = 2908; Call = inactive
CG12384 [DRSC06145]: firefly Hh reporter signal, replicate 1 = 1.78e5; firefly Hh reporter signal, replicate 2 = 1.33e5; Renilla reference signal, replicate 1 = 7604; Renilla reference signal, replicate 2 = 4293; Call = inactive
CG15861 [DRSC04274]: firefly Hh reporter signal, replicate 1 = 85045; firefly Hh reporter signal, replicate 2 = 40797; Renilla reference signal, replicate 1 = 1956; Renilla reference signal, replicate 2 = 3652; Call = inactive
nxf2 [DRSC10403]: firefly Hh reporter signal, replicate 1 = 72401; firefly Hh reporter signal, replicate 2 = 62450; Renilla reference signal, replicate 1 = 3303; Renilla reference signal, replicate 2 = 2304; Call = inactive
S-Lap1 [DRSC10627]: firefly Hh reporter signal, replicate 1 = 1.51e5; firefly Hh reporter signal, replicate 2 = 1.03e5; Renilla reference signal, replicate 1 = 6450; Renilla reference signal, replicate 2 = 4658; Call = inactive

In a second layout: 2 of the entries above.
gene	dsRNA	firefly Hh reporter signal, replicate 1	firefly Hh reporter signal, replicate 2	Renilla reference signal, replicate 1	Renilla reference signal, replicate 2	Call
brwl	DRSC02729	82583	57479	3677	2908	inactive
CG12384	DRSC06145	1.78e5	1.33e5	7604	4293	inactive

The list goes on:
CG8671 [DRSC03102]: firefly Hh reporter signal, replicate 1 = 68646; firefly Hh reporter signal, replicate 2 = 46256; Renilla reference signal, replicate 1 = 1654; Renilla reference signal, replicate 2 = 4121; Call = inactive
CG8671 [DRSC03103]: firefly Hh reporter signal, replicate 1 = 76885; firefly Hh reporter signal, replicate 2 = 56048; Renilla reference signal, replicate 1 = 1828; Renilla reference signal, replicate 2 = 5104; Call = inactive
Drsl5 [DRSC08159]: firefly Hh reporter signal, replicate 1 = 1.09e5; firefly Hh reporter signal, replicate 2 = 52224; Renilla reference signal, replicate 1 = 4210; Renilla reference signal, replicate 2 = 4835; Call = inactive
Pp2A-29B [DRSC03400]: firefly Hh reporter signal, replicate 1 = 1.68e5; firefly Hh reporter signal, replicate 2 = 90730; Renilla reference signal, replicate 1 = 4108; Renilla reference signal, replicate 2 = 7492; Call = inactive
Acox57D-p [DRSC04560]: firefly Hh reporter signal, replicate 1 = 1.09e5; firefly Hh reporter signal, replicate 2 = 83315; Renilla reference signal, replicate 1 = 3993; Renilla reference signal, replicate 2 = 3296; Call = inactive
CG6696 [DRSC20004]: firefly Hh reporter signal, replicate 1 = 59312; firefly Hh reporter signal, replicate 2 = 2.46e5; Renilla reference signal, replicate 1 = 1252; Renilla reference signal, replicate 2 = 9504; Call = inactive
